Measurements reported in PubChem BioAssay AID504774 (Drosophila RNAi Screening Center, 2011)

Test: 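Genes required for cells to withstand methyl methanesulphonate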 (primary screen)
System: Drosophila Kc167 cells
Reagent: long dsRNA against Drosophila genes, about 0.25 µg dsRNA per well
Time to read-out: about 6 days: 3 days knock-down, then 3 days with or without MMS
Treatment: methyl methanesulphonate 0.004% (w/v) for 3 days after knock-down
Detection: 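ATP-dependent luminescence as a measure of live cells in MMS-exposed wells, quantile normalised within each plate, with replicate values also given as a mean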
Direction: mean viability with MMS and viability with MMS: higher = more surviving cells after MMS
The deposit covers about 23,000 reagents; this is a random part of those that have a named target and a result. 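Values are quantile-normalised luminescence on an arbitrary scale; higher means more cells surviving MMS.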 The numbers tell different reagents against one gene apart.

| target gene | reagent | mean viability with MMS | viability with MMS, replicate 1 | viability with MMS, replicate 2 |
| --- | --- | --- | --- | --- |
| Gk2 | 1 | 3.62e6 | 4.10e6 | 4.11e6 |
| sqa | 1 | 3.68e6 | 4.21e6 | 4.13e6 |
| sqa | 2 | 3.70e6 | 4.24e6 | 4.09e6 |
| CG30275 | 1 | 3.80e6 | 4.15e6 | 4.39e6 |
| Gyc32E | 1 | 3.57e6 | 3.96e6 | 4.14e6 |
| Lapsyn | 1 | 3.89e6 | 4.21e6 | 4.49e6 |
| Gpa2 | 1 | 3.49e6 | 4.04e6 | 3.90e6 |
| CG8534 | 1 | 3.59e6 | 4.03e6 | 4.07e6 |
| Syt14 | 1 | 3.66e6 | 4.08e6 | 4.17e6 |
| CG7024 | 1 | 3.60e6 | 4.16e6 | 4.01e6 |
| Smg6 | 1 | 3.38e6 | 3.75e6 | 3.91e6 |
| Cyp4p3 | 1 | 3.66e6 | 4.11e6 | 4.11e6 |
| CG14454 | 1 | 3.42e6 | 3.87e6 | 3.84e6 |
| Nep4 | 1 | 3.61e6 | 4.06e6 | 4.10e6 |
| CG10274 | 1 | 3.54e6 | 4.02e6 | 4.02e6 |
| moon | 1 | 3.45e6 | 3.90e6 | 3.90e6 |
| Ptp4E | 1 | 3.55e6 | 4.00e6 | 3.98e6 |
| CG13247 | 1 | 3.70e6 | 4.18e6 | 4.13e6 |
| CG13069 | 1 | 3.54e6 | 4.02e6 | 4.01e6 |
| CG15082 | 1 | 3.28e6 | 3.69e6 | 3.70e6 |
| CG10513 | 1 | 3.44e6 | 3.88e6 | 3.94e6 |
| Rtc1 | 1 | 3.46e6 | 3.62e6 | 4.13e6 |
| Rpi | 1 | 3.75e6 | 4.24e6 | 4.21e6 |
| GCS2alpha | 1 | 3.76e6 | 4.20e6 | 4.20e6 |
| Stam | 1 | 3.39e6 | 3.67e6 | 3.95e6 |
| CG7168 | 1 | 3.58e6 | 4.00e6 | 4.13e6 |
| Patsas | 1 | 3.57e6 | 4.30e6 | 3.82e6 |
| Osi15 | 1 | 3.47e6 | 3.82e6 | 4.06e6 |
| CG43102 | 1 | 3.85e6 | 4.04e6 | 4.09e6 |
| CG43102 | 2 | 3.58e6 | 4.20e6 | 3.92e6 |
| CG4611 | 1 | 3.57e6 | 4.27e6 | 3.83e6 |
| CG17344 | 1 | 3.55e6 | 3.96e6 | 4.10e6 |
| CG13168 | 1 | 3.70e6 | 4.08e6 | 4.19e6 |
| reb | 1 | 3.46e6 | 3.95e6 | 3.78e6 |
| stwl | 1 | 3.25e6 | 3.66e6 | 3.69e6 |
| CG10337 | 1 | 3.42e6 | 3.78e6 | 3.94e6 |
| CG31798 | 1 | 3.56e6 | 4.01e6 | 4.05e6 |
| CG15036 | 1 | 3.50e6 | 3.94e6 | 4.02e6 |

5 entries already listed, arranged by “mean viability with MMS”, high to low:
| target gene | reagent | mean viability with MMS | viability with MMS, replicate 1 | viability with MMS, replicate 2 |
| --- | --- | --- | --- | --- |
| CG13247 | 1 | 3.70e6 | 4.18e6 | 4.13e6 |
| Ptp4E | 1 | 3.55e6 | 4.00e6 | 3.98e6 |
| CG13069 | 1 | 3.54e6 | 4.02e6 | 4.01e6 |
| CG10513 | 1 | 3.44e6 | 3.88e6 | 3.94e6 |
| CG15082 | 1 | 3.28e6 | 3.69e6 | 3.70e6 |

Next results:
| target gene | reagent | mean viability with MMS | viability with MMS, replicate 1 | viability with MMS, replicate 2 |
| --- | --- | --- | --- | --- |
| CheA46a | 1 | 3.48e6 | 3.99e6 | 3.88e6 |
| TotX | 1 | 3.64e6 | 4.06e6 | 4.13e6 |
| INPP5E | 1 | 3.51e6 | 3.88e6 | 4.07e6 |
| CG32694 | 1 | 3.45e6 | 3.89e6 | 3.93e6 |
| CG32694 | 2 | 3.58e6 | 4.07e6 | 4.02e6 |
| CG32694 | 3 | 3.28e6 | 3.82e6 | 3.88e6 |
| CG30026 | 1 | 3.55e6 | 3.98e6 | 4.06e6 |
| Fign | 1 | 3.71e6 | 4.31e6 | 4.14e6 |
| Jon65Aiv | 1 | 3.64e6 | 4.14e6 | 4.13e6 |
| CG6707 | 1 | 3.54e6 | 3.85e6 | 4.16e6 |
| Rme-8 | 1 | 3.53e6 | 3.95e6 | 4.05e6 |
| Optix | 1 | 3.70e6 | 4.20e6 | 4.23e6 |
| Optix | 2 | 3.58e6 | 4.12e6 | 4.00e6 |
| Optix | 3 | 3.59e6 | 4.13e6 | 3.98e6 |
| Ndc1 | 1 | 3.15e6 | 3.67e6 | 3.67e6 |
| LysE | 1 | 3.66e6 | 4.10e6 | 4.16e6 |
| Mtp | 1 | 3.50e6 | 4.00e6 | 3.77e6 |
| CG16956 | 1 | 3.57e6 | 4.12e6 | 3.97e6 |
| CG8854 | 1 | 3.57e6 | 4.10e6 | 4.01e6 |
| su(Hw) | 1 | 3.62e6 | 4.22e6 | 4.02e6 |
| Abi | 1 | 3.66e6 | 4.23e6 | 4.10e6 |
| CG33060 | 1 | 3.68e6 | 4.13e6 | 4.17e6 |
| cindr | 1 | 3.45e6 | 3.86e6 | 3.98e6 |
| cindr | 2 | 3.40e6 | 3.82e6 | 3.82e6 |
| CG17193 | 1 | 3.61e6 | 4.26e6 | 3.93e6 |
| ghi | 1 | 3.48e6 | 3.95e6 | 3.95e6 |
| CG13085 | 1 | 3.56e6 | 4.05e6 | 4.03e6 |
| CG3434 | 1 | 3.50e6 | 3.91e6 | 4.01e6 |
| CG15701 | 1 | 3.46e6 | 3.91e6 | 3.91e6 |
| SrpRalpha | 1 | 3.50e6 | 3.46e6 | 4.22e6 |
